Data as given in the supplement of paper PMC10849652.
This is one part of the list.

The chains behind the UniProt entries cited, without tags or fusion partners. Where a name states a change or a piece, a line headed by the entry shows the natural chain unless it says otherwise.
UniProt Q9Y3A2: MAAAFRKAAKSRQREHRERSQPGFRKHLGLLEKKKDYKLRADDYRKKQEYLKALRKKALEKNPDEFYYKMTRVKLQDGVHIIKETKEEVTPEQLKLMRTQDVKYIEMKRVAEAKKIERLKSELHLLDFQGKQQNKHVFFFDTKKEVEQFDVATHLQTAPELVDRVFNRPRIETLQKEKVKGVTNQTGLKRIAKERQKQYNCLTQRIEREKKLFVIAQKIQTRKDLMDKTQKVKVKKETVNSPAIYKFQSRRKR
UniProt O94782: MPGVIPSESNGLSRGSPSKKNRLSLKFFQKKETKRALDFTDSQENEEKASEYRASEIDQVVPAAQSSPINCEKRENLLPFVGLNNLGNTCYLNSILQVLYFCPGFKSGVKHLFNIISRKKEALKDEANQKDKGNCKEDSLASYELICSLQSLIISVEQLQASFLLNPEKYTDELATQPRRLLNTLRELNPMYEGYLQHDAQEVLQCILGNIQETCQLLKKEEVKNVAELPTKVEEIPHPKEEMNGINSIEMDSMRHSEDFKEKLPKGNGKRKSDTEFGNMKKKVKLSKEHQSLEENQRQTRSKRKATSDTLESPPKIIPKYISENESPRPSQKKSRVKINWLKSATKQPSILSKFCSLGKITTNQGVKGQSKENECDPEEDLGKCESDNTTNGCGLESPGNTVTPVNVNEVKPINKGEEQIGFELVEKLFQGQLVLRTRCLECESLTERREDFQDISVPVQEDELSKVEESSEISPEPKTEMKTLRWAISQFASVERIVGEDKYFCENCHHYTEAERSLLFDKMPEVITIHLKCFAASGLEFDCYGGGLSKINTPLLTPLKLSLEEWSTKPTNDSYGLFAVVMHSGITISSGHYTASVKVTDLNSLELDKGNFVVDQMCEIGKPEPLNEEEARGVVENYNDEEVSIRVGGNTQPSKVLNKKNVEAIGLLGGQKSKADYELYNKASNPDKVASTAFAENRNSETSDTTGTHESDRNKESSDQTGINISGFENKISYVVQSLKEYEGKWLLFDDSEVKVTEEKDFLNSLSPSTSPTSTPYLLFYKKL
UniProt Q9NZ43: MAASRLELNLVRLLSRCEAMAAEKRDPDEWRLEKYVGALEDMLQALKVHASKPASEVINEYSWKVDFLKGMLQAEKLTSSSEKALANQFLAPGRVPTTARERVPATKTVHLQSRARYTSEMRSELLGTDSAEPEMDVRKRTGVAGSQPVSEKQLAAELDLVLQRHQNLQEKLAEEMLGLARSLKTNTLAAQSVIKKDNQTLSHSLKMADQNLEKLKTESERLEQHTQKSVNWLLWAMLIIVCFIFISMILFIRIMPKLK
UniProt P54578: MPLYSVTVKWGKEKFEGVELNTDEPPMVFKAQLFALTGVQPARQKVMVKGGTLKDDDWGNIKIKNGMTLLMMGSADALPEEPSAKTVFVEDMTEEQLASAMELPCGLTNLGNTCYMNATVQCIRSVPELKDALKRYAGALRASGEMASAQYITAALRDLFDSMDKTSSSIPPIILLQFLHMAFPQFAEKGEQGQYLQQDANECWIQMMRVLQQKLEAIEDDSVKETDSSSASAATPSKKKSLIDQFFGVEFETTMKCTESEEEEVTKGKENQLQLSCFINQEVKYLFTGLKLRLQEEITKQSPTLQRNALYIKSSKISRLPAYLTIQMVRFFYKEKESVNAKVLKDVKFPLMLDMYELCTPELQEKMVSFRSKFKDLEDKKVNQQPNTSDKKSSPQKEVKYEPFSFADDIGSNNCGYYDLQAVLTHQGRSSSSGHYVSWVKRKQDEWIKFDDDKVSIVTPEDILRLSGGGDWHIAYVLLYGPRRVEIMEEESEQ
UniProt O60701: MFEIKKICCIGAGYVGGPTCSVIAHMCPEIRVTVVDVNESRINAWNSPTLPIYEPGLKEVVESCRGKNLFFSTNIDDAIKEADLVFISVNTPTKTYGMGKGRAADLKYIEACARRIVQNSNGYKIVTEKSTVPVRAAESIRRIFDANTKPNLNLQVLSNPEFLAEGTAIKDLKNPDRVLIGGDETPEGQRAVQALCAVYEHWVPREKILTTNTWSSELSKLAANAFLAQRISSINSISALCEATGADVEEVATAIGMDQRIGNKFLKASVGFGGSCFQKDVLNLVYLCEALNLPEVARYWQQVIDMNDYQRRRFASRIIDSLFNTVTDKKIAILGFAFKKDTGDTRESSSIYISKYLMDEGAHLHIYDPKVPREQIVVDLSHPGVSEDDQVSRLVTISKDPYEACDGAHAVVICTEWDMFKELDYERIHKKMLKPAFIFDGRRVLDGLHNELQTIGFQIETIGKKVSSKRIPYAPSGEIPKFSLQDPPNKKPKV
UniProt Q9BVJ6: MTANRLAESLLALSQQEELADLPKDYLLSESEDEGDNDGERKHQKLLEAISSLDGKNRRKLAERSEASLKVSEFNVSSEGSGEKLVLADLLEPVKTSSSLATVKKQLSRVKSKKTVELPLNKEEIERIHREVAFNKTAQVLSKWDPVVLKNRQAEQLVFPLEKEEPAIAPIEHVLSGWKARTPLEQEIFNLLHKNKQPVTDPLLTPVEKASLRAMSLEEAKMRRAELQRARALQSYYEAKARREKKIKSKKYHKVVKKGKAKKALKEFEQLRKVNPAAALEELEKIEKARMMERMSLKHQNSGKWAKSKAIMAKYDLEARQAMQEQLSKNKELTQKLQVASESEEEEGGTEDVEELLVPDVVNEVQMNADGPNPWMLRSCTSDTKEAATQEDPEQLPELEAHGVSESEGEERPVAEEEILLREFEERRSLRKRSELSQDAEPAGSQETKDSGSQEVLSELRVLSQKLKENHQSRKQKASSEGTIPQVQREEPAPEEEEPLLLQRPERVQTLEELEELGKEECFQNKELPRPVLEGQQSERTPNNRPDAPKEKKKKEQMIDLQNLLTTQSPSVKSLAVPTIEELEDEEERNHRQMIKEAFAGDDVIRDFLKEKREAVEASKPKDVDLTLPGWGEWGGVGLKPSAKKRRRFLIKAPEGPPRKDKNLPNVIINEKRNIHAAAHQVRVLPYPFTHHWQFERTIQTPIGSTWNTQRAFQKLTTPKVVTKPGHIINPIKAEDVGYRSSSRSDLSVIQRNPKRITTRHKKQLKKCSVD
UniProt O94763, whole entry, looked up: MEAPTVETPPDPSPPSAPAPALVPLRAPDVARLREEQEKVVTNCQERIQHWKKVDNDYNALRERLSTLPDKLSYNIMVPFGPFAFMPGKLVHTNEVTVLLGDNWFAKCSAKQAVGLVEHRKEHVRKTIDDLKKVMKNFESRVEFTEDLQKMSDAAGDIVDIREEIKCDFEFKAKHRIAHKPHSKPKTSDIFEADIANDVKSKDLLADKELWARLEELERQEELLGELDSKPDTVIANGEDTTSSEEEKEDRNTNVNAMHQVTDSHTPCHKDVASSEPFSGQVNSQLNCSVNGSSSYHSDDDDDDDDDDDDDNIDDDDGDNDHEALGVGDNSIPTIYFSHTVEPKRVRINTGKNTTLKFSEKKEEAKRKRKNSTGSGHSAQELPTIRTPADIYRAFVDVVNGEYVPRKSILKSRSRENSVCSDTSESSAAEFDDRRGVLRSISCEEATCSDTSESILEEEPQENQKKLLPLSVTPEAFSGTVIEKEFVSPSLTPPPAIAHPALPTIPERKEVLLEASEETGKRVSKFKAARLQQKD
UniProt Q16880: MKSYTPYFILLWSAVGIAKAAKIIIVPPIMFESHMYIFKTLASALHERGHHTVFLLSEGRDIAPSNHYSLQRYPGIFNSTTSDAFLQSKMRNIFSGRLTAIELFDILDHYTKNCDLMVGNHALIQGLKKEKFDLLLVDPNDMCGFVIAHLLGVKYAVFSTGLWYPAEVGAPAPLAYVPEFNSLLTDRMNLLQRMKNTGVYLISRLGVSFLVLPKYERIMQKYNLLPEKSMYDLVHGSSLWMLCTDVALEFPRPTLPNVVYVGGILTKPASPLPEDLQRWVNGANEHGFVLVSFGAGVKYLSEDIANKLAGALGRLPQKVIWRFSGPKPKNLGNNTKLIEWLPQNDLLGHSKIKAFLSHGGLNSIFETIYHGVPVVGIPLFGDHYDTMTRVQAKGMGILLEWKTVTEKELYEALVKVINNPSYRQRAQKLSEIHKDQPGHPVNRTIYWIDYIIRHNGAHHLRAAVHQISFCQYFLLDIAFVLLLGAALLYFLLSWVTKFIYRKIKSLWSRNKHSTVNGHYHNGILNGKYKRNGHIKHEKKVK
UniProt P61960, whole entry, looked up: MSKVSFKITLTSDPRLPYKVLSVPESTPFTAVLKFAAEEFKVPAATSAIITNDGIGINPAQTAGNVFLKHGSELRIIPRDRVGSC
UniProt P51784: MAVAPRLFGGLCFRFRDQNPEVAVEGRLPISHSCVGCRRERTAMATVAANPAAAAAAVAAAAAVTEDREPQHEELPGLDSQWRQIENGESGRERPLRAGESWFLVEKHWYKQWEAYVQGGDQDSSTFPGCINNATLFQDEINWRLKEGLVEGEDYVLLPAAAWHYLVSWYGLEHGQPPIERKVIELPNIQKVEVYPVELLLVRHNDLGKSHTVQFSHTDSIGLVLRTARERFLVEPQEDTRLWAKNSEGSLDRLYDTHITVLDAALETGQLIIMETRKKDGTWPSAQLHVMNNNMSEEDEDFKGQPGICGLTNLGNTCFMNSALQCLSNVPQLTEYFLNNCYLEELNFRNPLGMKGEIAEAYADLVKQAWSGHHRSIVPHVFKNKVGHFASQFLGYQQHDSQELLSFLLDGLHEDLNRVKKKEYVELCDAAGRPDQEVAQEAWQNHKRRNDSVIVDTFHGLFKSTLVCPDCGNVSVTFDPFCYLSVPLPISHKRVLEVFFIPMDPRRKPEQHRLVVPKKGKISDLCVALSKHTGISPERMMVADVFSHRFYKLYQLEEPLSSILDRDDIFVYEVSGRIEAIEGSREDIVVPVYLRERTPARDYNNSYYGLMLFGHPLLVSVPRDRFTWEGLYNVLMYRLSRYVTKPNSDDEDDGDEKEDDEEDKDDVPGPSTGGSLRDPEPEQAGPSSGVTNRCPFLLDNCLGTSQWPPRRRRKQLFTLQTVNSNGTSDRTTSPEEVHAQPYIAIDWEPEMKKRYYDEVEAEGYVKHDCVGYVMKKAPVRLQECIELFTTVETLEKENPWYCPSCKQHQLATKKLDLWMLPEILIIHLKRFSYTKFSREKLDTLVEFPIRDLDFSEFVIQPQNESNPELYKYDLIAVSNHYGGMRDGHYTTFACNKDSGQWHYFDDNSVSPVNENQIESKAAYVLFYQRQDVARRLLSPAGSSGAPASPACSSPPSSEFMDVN
UniProt P47985: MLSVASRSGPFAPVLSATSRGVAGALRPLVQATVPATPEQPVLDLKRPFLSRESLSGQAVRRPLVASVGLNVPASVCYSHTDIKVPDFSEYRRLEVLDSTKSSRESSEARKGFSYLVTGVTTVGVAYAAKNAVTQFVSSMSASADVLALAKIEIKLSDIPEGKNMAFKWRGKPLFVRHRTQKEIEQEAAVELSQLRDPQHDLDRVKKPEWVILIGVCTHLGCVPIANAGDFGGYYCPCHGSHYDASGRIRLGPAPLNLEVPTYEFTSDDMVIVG
UniProt Q8NB14: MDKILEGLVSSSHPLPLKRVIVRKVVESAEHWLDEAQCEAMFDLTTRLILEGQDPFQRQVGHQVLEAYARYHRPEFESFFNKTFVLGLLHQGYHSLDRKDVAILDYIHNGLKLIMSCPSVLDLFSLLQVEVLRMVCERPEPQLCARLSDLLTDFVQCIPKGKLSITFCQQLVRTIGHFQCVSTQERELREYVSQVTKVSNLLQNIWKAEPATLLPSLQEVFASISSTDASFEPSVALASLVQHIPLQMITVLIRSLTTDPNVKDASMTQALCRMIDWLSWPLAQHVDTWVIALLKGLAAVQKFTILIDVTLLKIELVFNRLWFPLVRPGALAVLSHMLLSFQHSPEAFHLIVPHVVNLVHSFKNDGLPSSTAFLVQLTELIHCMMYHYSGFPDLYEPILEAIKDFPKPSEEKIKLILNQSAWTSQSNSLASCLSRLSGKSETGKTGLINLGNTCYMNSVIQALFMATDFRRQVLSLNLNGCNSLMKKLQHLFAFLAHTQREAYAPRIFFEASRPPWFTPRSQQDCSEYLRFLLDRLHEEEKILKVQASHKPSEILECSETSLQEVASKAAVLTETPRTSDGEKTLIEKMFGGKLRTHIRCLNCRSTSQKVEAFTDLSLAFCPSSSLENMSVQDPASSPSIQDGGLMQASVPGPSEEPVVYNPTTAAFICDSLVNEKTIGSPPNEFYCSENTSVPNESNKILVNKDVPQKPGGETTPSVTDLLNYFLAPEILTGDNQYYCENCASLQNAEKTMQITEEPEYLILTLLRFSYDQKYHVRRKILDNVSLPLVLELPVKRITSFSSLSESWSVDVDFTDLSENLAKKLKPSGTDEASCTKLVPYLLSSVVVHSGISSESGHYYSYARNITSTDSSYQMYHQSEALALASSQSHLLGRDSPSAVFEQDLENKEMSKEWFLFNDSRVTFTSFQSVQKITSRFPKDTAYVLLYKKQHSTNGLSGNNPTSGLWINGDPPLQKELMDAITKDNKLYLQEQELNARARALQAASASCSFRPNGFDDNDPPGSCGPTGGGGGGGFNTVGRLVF

What was measured:
Assay in all cases: log2 fold change, soluble protein after heating vs DMSO (PISA); higher = thermal stabilisation; K562 lysate, 10 uM; active = over 0.2 and 3.5 SD of the protein, either way, in both replicates (recomputed)
[1] = compound: CS(=O)(=O)CCNCc1ccc(-c2ccc3ncnc(Nc4ccc(OCc5cccc(F)c5)c(Cl)c4)c3c2)o1 [lapatinib]
How it was run: (§1)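 The values are log-two fold changes in thermal stability compared with solvent controls and come from duplicates. They were obtained by TMTpro 16plex LC-MS/MS, with channel sums equalised, on the supernatant after 21,000xg for 90 min. That supernatant came from crude K562 extract at 1 mg/mL protein treated with 10 μM compound for 30 min, heated for 3 min across 48°C-58°C, pooled and brought to 0.5% NP-40 at 4°C.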

[2] = compound: CS(=O)(=O)N1CCN(Cc2cc3nc(-c4cccc5[nH]ncc45)nc(N4CCOCC4)c3s2)CC1 [pictilisib]
How it was run: as §1

[3] = compound: C[C@@H](Oc1cc(-c2cnn(C3CCNCC3)c2)cnc1N)c1c(Cl)ccc(F)c1Cl [crizotinib]
How it was run: as §1

[4] = compound: C[C@H](C1=CC=C(C=C1)C(=O)NC2=C3C=CNC3=NC=C2)N
How it was run: as §1

[5] = compound: C[C@H](Nc1ncnc2nc[nH]c12)c1cc2cccc(Cl)c2c(=O)n1-c1ccccc1 [duvelisib]
How it was run: as §1

[6] = compound: Cc1cc(Nc2cc(CN3CCOCC3)c3nc(C)c(Cc4ccc(Cl)cc4F)n3n2)n[nH]1 [gandotinib]
How it was run: as §1

[7] = compound: Cc1cc(Nc2cc(N3CCN(C)CC3)nc(Sc3ccc(NC(=O)C4CC4)cc3)n2)n[nH]1 [tozasertib]
How it was run: as §1

[8] = compound: Cc1ccc(-n2nc(C(C)(C)C)cc2NC(=O)Nc2ccc(OCCN3CCOCC3)c3ccccc23)cc1 [doramapimod]
How it was run: as §1

[9] = compound: Cc1ccc(NC(=O)c2ccc(CN3CC[C@H](N(C)C)C3)c(C(F)(F)F)c2)cc1Nc1nccc(-c2cncnc2)n1 [bafetinib]
How it was run: as §1

[10] = compound: Cc1cccc(CC(=O)N2CCc3c2ccc(-c2cn(C)c4ncnc(N)c24)c3F)n1
How it was run: as §1

[11] = compound: Cc1cn(-c2cc(NC(=O)c3ccc(C)c(Nc4nccc(-c5cccnc5)n4)c3)cc(C(F)(F)F)c2)cn1 [nilotinib]
How it was run: as §1

[12] = compound: Cc1nc(Nc2n[nH]c3c2CN(C(=O)N[C@H](CN(C)C)c2ccccc2)C3(C)C)c2sccc2n1
How it was run: as §1

[13] = compound: Cc1nc(Nc2ncc(C(=O)Nc3c(C)cccc3Cl)s2)cc(N2CCN(CCO)CC2)n1 [dasatinib]
How it was run: as §1

[14] = compound: Cc1ncc(-c2ccnc(Nc3ccc(S(C)(=O)=O)cc3)n2)n1C(C)C
How it was run: as §1

[15] = compound: Cn1cc(-c2ccc3c(c2)CCN3C(=O)Cc2cccc(C(F)(F)F)c2)c2c(N)ncnc21
How it was run: as §1

[16] = compound: Cn1cc(CNCC2CCN(c3ncc(C(=O)NO)cn3)CC2)c2ccccc21 [quisinostat]
How it was run: as §1

[17] = compound: Cn1cncc1[C@@](N)(c1ccc(Cl)cc1)c1ccc2c(c1)c(-c1cccc(Cl)c1)cc(=O)n2C [tipifarnib]
How it was run: as §1

[18] = compound: NC(=O)Nc1cc(-c2cccc(F)c2)sc1C(=O)N[C@H]1CCCNC1
How it was run: as §1

[19] = compound: NC(=O)c1cnc(N[C@@H]2CCCC[C@@H]2N)nc1Nc1cccc(-n2nccn2)c1
How it was run: as §1

[20] = compound: NC1(c2ccc(-c3nc4ccn5c(=O)[nH]nc5c4cc3-c3ccccc3)cc2)CCC1
How it was run: as §1

Measured: log2 fold change

USP3 (UniProt Q9Y6I4)
inactive: [1] -0.016 | [2] 0.001 | [3] -0.033 | [4] 0.031 | [5] 0.01 | [6] -0.056 | [7] 0.021 | [8] -0.03 | [9] 0.01 | [10] -0.04 | [11] 0.045 | [12] -0.015 | [13] -0.028 | [14] 0.028 | [15] 0.008 | [16] -0.01 | [17] -0.054 | [18] 0.107 | [19] -0.005 | [20] -0.042

UTP11 (UniProt Q9Y3A2)
inactive: [1] -0.029 | [2] -0.042 | [3] 0.032 | [4] -0.285 | [5] -0.015 | [6] 0.064 | [7] 0.251 | [8] 0.072 | [9] -0.793 | [10] 0.202 | [11] -0.13 | [12] -0.009 | [13] 0.027 | [14] 0.071 | [15] 0.038 | [16] -0.066 | [17] 0.081 | [18] 0.029 | [19] 0.099

USP1 (UniProt O94782)
inactive: [1] 0.05 | [2] 0 | [3] 0.013 | [4] -0.027 | [5] -0.059 | [6] -0.01 | [7] 0.01 | [8] 0.021 | [9] -0.102 | [10] 0.018 | [11] 0.044 | [12] 0.007 | [13] -0.034 | [14] 0.011 | [15] 0.016 | [16] -0.006 | [17] -0.002 | [18] 0.03 | [19] -0.028 | [20] 0.026

USE1 (UniProt Q9NZ43)
inactive: [1] -0.035 | [2] 0.088 | [3] -0.057 | [4] 0.039 | [5] -0.056 | [6] -0.103 | [7] 0.011 | [8] 0.112 | [9] -0.019 | [10] 0.027 | [11] -0.019 | [12] 0.038 | [13] 0.068 | [14] 0.057 | [15] 0.02 | [16] 0.08 | [17] -0.021 | [18] 0.029 | [19] -0.027 | [20] 0.025

USP14 (UniProt P54578)
inactive: [1] 0 | [2] 0.009 | [3] -0.002 | [4] 0.108 | [5] -0.003 | [6] -0.024 | [7] 0.014 | [8] -0.006 | [9] -0.014 | [10] -0.029 | [11] 0.004 | [12] -0.025 | [13] 0.035 | [14] -0.013 | [15] 0.019 | [16] 0.032 | [17] 0.013 | [18] -0.011 | [19] 0.014 | [20] -0.003

UGDH (UniProt O60701)
active: [13] 0.217
inactive: [1] 0.009 | [2] -0.021 | [3] -0.015 | [4] 0.037 | [5] -0.063 | [6] -0.067 | [7] -0.073 | [8] -0.053 | [9] -0.019 | [10] -0.022 | [11] 0.008 | [12] -0.012 | [14] 0.009 | [15] -0.034 | [16] 0.019 | [17] 0.007 | [18] 0.039 | [19] -0.01 | [20] 0.006

UTP14A (UniProt Q9BVJ6)
inactive: [1] 0.004 | [2] 0.053 | [3] -0.026 | [4] -0.015 | [5] 0.023 | [6] 0.029 | [7] -0.009 | [8] 0.053 | [9] 0.004 | [10] 0.025 | [11] 0.002 | [12] -0.029 | [13] 0.097 | [14] -0.009 | [15] 0.001 | [16] -0.011 | [17] -0.017 | [18] -0.009 | [19] 0.001 | [20] 0.078

URI1 isoform 4 (UniProt O94763)
inactive: [1] -0.023 | [2] -0.008 | [3] 0.044 | [4] -0.079 | [5] -0.112 | [6] 0.179 | [7] 0.029 | [8] 0.029 | [9] 0.023 | [10] 0.131 | [11] 0.046 | [12] -0.071 | [13] -0.026 | [14] -0.015 | [15] 0.027 | [16] -0.028 | [17] -0.031 | [18] -0.056 | [19] -0.032 | [20] 0.115

UGT8 (UniProt Q16880)
inactive: [1] 0.114 | [2] -0.101 | [3] 0.019 | [4] -0.169 | [5] 0.085 | [6] 0.031 | [7] 0.021 | [8] -0.038 | [9] -0.064 | [10] 0.024 | [11] 0.135 | [12] 0.019 | [13] 0 | [14] -0.048 | [15] 0.043 | [16] -0.046 | [17] 0.02 | [18] -0.09 | [19] -0.083 | [20] -0.048

USP9X (UniProt Q93008)
inactive: [1] -0.031 | [2] -0.027 | [3] -0.058 | [4] -0.015 | [5] -0.017 | [6] -0.127 | [7] 0.011 | [8] 0.004 | [9] -0.034 | [10] 0.027 | [11] -0.01 | [12] 0 | [13] -0.045 | [14] 0.002 | [15] 0 | [16] -0.017 | [17] -0.024 | [18] 0.03 | [19] 0.02 | [20] -0.003

UFM1 (UniProt P61960)
active: [4] 0.566
inactive: [1] 0.134 | [2] 0.033 | [3] 0.191 | [5] 0.077 | [6] -0.36 | [7] -0.002 | [8] 0.022 | [9] 0.102 | [10] -0.319 | [11] 0.042 | [12] 0 | [13] -0.037 | [14] 0.107 | [15] -0.032 | [16] 0.321 | [17] 0.088 | [18] -0.116 | [19] -0.063 | [20] 0.043

2 successive records already listed, for reference:
UTP14A (UniProt Q9BVJ6)
inactive: [1] 0.004 | [2] 0.053 | [3] -0.026 | [4] -0.015 | [5] 0.023 | [6] 0.029 | [7] -0.009 | [8] 0.053 | [9] 0.004 | [10] 0.025 | [11] 0.002 | [12] -0.029 | [13] 0.097 | [14] -0.009 | [15] 0.001 | [16] -0.011 | [17] -0.017 | [18] -0.009 | [19] 0.001 | [20] 0.078

URI1 isoform 4 (UniProt O94763)
inactive: [1] -0.023 | [2] -0.008 | [3] 0.044 | [4] -0.079 | [5] -0.112 | [6] 0.179 | [7] 0.029 | [8] 0.029 | [9] 0.023 | [10] 0.131 | [11] 0.046 | [12] -0.071 | [13] -0.026 | [14] -0.015 | [15] 0.027 | [16] -0.028 | [17] -0.031 | [18] -0.056 | [19] -0.032 | [20] 0.115

Remaining list, next part

USP4 (UniProt Q13107)
inactive: [1] 0.026 | [2] 0.052 | [3] -0.067 | [4] 0.036 | [5] -0.062 | [6] -0.07 | [7] -0.042 | [8] 0.038 | [9] -0.085 | [10] 0.021 | [11] -0.058 | [12] 0.023 | [13] 0.037 | [14] -0.068 | [15] 0.01 | [16] -0.083 | [17] 0.034 | [18] 0.064 | [19] 0.022 | [20] -0.053

VASP (UniProt P50552)
inactive: [1] -0.006 | [2] 0.004 | [3] 0.007 | [4] -0.017 | [5] 0.047 | [6] 0.005 | [7] 0.019 | [8] -0.004 | [9] 0.136 | [10] 0.009 | [11] -0.025 | [12] -0.002 | [13] -0.061 | [14] -0.014 | [15] -0.001 | [16] 0.012 | [17] 0.008 | [18] -0.012 | [19] -0.006 | [20] 0.013

USP11 (UniProt P51784)
inactive: [1] -0.037 | [2] 0.014 | [3] -0.044 | [4] -0.016 | [5] 0.039 | [6] -0.031 | [7] 0 | [8] 0.032 | [9] -0.049 | [10] 0.028 | [11] 0.01 | [12] 0.015 | [13] 0.001 | [14] -0.026 | [15] -0.007 | [16] -0.028 | [17] -0.014 | [18] 0.055 | [19] 0.028 | [20] 0.01

UQCRFS1 (UniProt P47985)
inactive: [1] 0.01 | [2] -0.054 | [3] 0.072 | [4] 0.137 | [5] 0.011 | [6] 0.006 | [7] 0.012 | [8] -0.061 | [9] 0.041 | [10] -0.023 | [11] 0.016 | [12] -0.026 | [13] 0.055 | [14] 0.037 | [15] 0.015 | [16] 0.071 | [17] 0.009 | [18] -0.034 | [19] -0.03 | [20] 0.007

USP38 (UniProt Q8NB14)
inactive: [1] -0.062 | [2] -0.031 | [3] -0.068 | [4] 0.004 | [5] 0.011 | [6] -0.125 | [7] 0.036 | [8] -0.024 | [9] -0.269 | [10] 0.019 | [11] -0.016 | [12] -0.124 | [13] -0.046 | [14] -0.015 | [15] 0.047 | [16] -0.055 | [17] 0.024 | [18] 0.065 | [19] 0.052
